Source: paper PMC10673876
These are yes or no findings as the source states them, for the method shown. Binding seen in cells or lysates may run through a third protein. Some entries that bind do so weakly or less than the wild type.

By UniProt entry, the sequences of proteins in these tests, tags left out.
UniProt P35579: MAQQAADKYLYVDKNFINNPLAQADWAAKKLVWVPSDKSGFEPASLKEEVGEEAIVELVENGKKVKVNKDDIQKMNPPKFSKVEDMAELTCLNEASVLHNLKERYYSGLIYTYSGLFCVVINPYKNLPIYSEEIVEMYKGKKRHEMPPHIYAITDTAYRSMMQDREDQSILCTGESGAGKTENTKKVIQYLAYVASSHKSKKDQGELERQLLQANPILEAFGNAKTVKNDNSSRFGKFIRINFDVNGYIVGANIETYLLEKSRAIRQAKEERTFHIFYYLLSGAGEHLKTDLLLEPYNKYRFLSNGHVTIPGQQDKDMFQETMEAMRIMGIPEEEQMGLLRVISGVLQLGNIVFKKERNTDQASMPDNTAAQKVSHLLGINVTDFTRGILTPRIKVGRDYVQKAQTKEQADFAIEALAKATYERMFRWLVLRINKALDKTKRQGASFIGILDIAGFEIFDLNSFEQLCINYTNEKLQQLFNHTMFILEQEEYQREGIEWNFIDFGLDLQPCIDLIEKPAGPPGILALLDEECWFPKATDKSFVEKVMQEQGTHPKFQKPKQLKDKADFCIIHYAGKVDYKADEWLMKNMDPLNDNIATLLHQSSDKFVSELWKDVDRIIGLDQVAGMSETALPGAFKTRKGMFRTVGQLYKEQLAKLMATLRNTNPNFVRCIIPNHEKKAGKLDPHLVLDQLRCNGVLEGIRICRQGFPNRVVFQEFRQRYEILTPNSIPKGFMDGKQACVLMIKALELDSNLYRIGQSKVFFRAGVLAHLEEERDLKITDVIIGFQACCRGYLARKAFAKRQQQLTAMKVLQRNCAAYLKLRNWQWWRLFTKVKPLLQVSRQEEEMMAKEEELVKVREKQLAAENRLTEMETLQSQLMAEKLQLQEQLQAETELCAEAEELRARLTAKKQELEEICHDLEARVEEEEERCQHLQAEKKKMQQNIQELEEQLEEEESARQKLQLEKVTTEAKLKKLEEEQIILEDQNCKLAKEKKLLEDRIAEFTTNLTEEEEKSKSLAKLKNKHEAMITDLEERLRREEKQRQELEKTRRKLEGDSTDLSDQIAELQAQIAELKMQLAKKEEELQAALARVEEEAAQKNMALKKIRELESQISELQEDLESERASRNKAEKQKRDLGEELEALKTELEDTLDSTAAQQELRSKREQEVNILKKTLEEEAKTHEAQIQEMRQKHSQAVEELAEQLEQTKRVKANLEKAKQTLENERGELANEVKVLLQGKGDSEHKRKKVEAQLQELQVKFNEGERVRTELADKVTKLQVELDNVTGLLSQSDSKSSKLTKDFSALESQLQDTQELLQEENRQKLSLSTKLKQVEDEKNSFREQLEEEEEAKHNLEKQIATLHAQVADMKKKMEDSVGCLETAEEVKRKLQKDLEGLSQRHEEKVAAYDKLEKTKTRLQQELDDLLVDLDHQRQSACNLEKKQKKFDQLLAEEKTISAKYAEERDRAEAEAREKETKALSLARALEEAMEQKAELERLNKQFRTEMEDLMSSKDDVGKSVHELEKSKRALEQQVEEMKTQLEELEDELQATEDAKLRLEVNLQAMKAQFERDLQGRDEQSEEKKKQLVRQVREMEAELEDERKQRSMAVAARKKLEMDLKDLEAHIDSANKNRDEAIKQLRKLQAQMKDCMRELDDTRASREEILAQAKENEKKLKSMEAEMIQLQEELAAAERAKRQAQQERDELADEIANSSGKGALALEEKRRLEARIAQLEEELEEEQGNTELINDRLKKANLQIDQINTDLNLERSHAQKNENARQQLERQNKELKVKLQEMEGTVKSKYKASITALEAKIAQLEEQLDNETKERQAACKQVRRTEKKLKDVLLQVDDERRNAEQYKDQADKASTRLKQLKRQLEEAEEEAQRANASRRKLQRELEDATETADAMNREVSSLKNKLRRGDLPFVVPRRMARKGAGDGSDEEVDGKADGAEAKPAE
UniProt O75528: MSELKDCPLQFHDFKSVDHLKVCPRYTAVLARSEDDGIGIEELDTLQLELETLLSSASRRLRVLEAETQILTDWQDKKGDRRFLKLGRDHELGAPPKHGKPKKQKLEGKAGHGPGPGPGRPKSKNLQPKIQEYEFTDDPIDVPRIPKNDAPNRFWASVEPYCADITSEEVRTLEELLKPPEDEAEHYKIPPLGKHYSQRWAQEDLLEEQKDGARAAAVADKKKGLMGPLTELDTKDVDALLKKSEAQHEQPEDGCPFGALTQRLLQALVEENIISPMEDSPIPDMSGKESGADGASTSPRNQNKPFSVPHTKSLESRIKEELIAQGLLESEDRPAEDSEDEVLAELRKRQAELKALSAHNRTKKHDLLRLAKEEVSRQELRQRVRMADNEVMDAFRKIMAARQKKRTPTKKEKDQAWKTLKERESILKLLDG

Key:
[1] = biological target: T1, Emerin (human (endogenous in K562)) (UniProt P50402); assay: co-IP; K562 cells with or without glucose for 48 h; RIPA lysate (1.5 mg) incubated with Emerin or TAF9B antibody overnight at 4 °C, Protein A/G magnetic beads, washed with PBS; immunoblotting
T1 sequence: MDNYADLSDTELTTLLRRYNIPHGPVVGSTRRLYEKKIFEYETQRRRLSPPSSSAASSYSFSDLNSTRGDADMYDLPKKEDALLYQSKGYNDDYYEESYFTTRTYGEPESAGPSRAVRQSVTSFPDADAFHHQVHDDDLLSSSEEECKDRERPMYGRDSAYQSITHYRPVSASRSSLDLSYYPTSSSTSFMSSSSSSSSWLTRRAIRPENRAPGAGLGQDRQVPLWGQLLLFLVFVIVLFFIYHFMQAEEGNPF

[2] = biological target: TAF9B (human (endogenous in K562)) (UniProt Q9HBM6); assay: as above

binding [1] | binding [2] | Substance
binds |  | MYH9 (from UniProt P35579 1-1960)
 | binds | TADA3L (from UniProt O75528 1-432)
